By UniProt entry, the sequences of proteins in these tests, tags left out.
UniProt P19474: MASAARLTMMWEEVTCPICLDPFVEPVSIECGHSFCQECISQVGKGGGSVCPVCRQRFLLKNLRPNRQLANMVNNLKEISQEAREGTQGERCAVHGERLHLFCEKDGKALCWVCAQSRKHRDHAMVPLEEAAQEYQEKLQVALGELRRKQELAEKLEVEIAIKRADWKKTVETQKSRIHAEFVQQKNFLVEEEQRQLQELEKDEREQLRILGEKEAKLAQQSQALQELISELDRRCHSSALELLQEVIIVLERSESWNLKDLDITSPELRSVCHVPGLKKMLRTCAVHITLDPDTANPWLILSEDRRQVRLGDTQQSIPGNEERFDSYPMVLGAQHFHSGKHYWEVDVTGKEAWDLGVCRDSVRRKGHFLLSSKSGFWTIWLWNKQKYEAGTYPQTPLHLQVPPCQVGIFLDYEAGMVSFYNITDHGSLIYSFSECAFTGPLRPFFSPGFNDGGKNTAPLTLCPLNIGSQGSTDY

According to PMC12102395:

Target: T1, NBR1 (endogenous) (human (endogenous in DU145 and PC-3)) (UniProt Q14596)
T1 sequence: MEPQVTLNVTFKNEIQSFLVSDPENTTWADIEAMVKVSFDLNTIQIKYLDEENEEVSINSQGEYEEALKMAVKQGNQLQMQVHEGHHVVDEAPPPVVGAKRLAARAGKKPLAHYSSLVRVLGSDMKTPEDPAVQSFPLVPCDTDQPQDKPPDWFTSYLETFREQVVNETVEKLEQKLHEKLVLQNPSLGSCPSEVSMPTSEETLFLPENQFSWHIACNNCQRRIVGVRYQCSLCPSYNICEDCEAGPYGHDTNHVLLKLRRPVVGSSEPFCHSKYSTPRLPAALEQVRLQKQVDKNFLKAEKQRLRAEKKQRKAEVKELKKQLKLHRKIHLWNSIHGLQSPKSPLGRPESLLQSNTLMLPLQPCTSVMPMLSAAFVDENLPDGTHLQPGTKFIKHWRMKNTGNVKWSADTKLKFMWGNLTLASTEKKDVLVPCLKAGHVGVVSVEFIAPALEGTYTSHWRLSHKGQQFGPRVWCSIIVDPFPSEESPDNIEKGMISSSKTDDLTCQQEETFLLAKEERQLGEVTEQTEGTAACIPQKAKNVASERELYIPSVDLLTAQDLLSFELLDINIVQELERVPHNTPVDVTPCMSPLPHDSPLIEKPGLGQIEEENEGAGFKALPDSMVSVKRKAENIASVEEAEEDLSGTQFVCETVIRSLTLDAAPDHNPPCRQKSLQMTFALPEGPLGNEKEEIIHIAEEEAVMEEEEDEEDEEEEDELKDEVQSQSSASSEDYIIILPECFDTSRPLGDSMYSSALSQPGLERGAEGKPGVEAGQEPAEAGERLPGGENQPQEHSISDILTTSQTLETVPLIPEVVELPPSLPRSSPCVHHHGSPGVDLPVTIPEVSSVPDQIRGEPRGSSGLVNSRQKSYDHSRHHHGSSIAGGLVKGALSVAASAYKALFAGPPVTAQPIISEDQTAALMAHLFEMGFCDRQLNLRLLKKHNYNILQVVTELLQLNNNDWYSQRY
Assay: affinity purification with mass spectrometry; immunoprecipitation of NBR1, protein products analysed by mass spectrometry; cells not given

TRIM21 (from UniProt P19474 1-475) (enzyme)
binding: binds

No constants are given. Whether binding was seen depends on the method and setting. Binding seen in cells or lysates may run through a third protein. Here binding means that the protein was enriched with, or labelled near, the bait; the list need not be complete.
